Experimental findings from PMC5469495, “MicroRNA319-regulated TCPs interact with FBHs and PFT1 to activate CO transcription and control flowering time in Arabidopsis” (PLoS Genetics, 2017) are described below.

The chains behind the UniProt entries cited, without tags or fusion partners. Where a name states a change or a piece, a line headed by the entry shows the natural chain unless it says otherwise.
UniProt Q9C8P8: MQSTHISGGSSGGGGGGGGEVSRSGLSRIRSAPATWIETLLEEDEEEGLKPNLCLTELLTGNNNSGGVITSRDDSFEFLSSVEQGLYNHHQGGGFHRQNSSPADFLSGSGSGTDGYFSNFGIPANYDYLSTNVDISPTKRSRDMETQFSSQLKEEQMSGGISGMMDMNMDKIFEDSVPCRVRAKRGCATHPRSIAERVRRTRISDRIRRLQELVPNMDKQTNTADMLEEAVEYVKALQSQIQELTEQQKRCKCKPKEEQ

Test [1] concerns the target FLOWERING BHLH 1 (Arabidopsis thaliana) (UniProt Q9C8P8). The experiment in a line: two-hybrid; GAL4-AD and GAL4-BD derivatives co-transformed into yeast strain AH109; grown on SD-L/W, screened on SD-L/W/H or SD-L/W/H/A with 3-AT.
Test [2] shares this target. The experiment in a line: split reporter; LUC complementation imaging (LCI): nLUC and cLUC fusions co-infiltrated by Agrobacterium into N. benthamiana leaves; LUC activity 48 h after infiltration.

Results are given in words; binding and its absence hold for the method and conditions named. A result given as binding can be weak or reduced; the word gives no strength. For some assays here: Binding seen in cells or lysates may run through a third protein.

B1: TCP10 (protein, UniProt O82277 1-361)
chain: MGLKGYSVGEGGGEIVEVQGGHIIRATGRKDRHSKVFTSKGPRDRRVRLSAHTAIQFYDVQDRLGYDRPSKAVDWLIKKAKTAIDKLELGETTTTTTRQEPVNTKPESPTLVFQRENNDQTQFVAANLDPEDAMKTFFPATTTTNGGGGTNINFQNYPHQDDNNMVSRTTTPPPNLSQDLGLSLHPFQGNNNTVVVPETNNFTTTHFDTFGRISGWNHHDLTMTSSSSSEHQQQEQEERSNGGFMVNHHPHHHHHQPSMMTLLNSQQQQVFLGGQQQQQQRGTLQSSLFPHSFRSWDHHQTTSDHHHHQNQASSMFASSSQYGSHGMMMMQGLSFPNTTRLLHGEEATQPNSSSSPPNSHL
With B1, the binding entry in test [1] and in test [2] was “binds” throughout.

B2: TCP24 (protein, UniProt Q9C758 1-324)
chain: MEVDEDIELQKHQEQQSRKLQRFSEDNTGLMRNWNNPSSRIIRVSRASGGKDRHSKVLTSKGLRDRRIRLSVATAIQFYDLQDRLGFDQPSKAVEWLINAASDSITDLPLLNTNFDHLDQNQNQTKSACSSGTSESSLLSLSRTEIRGKARERARERTAKDRDKDLQNAHSSFTQLLTGGFDQQPSNRNWTGGSDCFNPVQLQIPNSSSQEPMNHPFSFVPDYNFGISSSSSAINGGYSSRGTLQSNSQSLFLNNNNNITQRSSISSSSSSSSPMDSQSISFFMATPPPLDHHNHQLPETFDGRLYLYYGEGNRSSDDKAKERR
Consider B2, for which the binding result in test [1] and in test [2] was “binds” each time.

B3: TCP3 (protein, UniProt Q9MAH8 1-391)
chain: MAPDNDHFLDSPSPPLLEMRHHQSATENGGGCGEIVEVQGGHIVRSTGRKDRHSKVCTAKGPRDRRVRLSAPTAIQFYDVQDRLGFDRPSKAVDWLITKAKSAIDDLAQLPPWNPADTLRQHAAAAANAKPRKTKTLISPPPPQPEETEHHRIGEEEDNESSFLPASMDSDSIADTIKSFFPVASTQQSYHHQPPSRGNTQNQDLLRLSLQSFQNGPPFPNQTEPALFSGQSNNQLAFDSSTASWEQSHQSPEFGKIQRLVSWNNVGAAESAGSTGGFVFASPSSLHPVYSQSQLLSQRGPLQSINTPMIRAWFDPHHHHHHHQQSMTTDDLHHHHPYHIPPGIHQSAIPGIAFASSGEFSGFRIPARFQGEQEEHGGDNKPSSASSDSRH
Take B3: the binding result in test [1] and in test [2] was “binds” throughout.

B4: TCP2 (protein, UniProt Q93V43 1-365)
chain: MIGDLMKNNNNGDVVDNEVNNRLSRWHHNSSRIIRVSRASGGKDRHSKVLTSKGPRDRRVRLSVSTALQFYDLQDRLGYDQPSKAVEWLIKAAEDSISELPSLNNTHFPTDDENHQNQTLTTVAANSLSKSACSSNSDTSKNSSGLSLSRSELRDKARERARERTAKETKERDHNHTSFTDLLNSGSDPVNSNRQWMASAPSSSPMEYFSSGLILGSGQQTHFPISTNSHPFSSISDHHHHHPHHQHQEFSFVPDHLISPAESNGGAFNLDFNMSTPSGAGAAVSAASGGGFSGFNRGTLQSNSTNQHQSFLANLQRFPTSESGGGPQFLFGALPAENHHHNHQFQLYYENGCRNSSEHKGKGKN
As to B4, the binding result in test [1] and in test [2] was “binds” in each case.
